Experimental data reported in patent US20250042963A1, “METHODS FOR TREATING MYELOPROLIFERATIVE DISORDERS” (Acceleron Pharma Inc., priority 2015, published 2025).
Entries after “also recorded” stand apart in the source; their conditions may differ. At least one structure is not confirmed: it was looked up by name or label, or the drawing left a doubt.

Key:
MF patients = conditions: phase 1/2 trial; 20, 25 and 30 mg three times daily; IWG criteria; cited from earlier work
[1] = tested on: patients with a myeloproliferative disorder; conditions: recent studies; cited from earlier work
JAK2V617F mice = test: JAK2V617F model, late stage myelofibrosis, treatment initiated at 12 months of age; format: in vivo, mouse; conditions: after three weeks of treatment; 12-month-old JAK2V617F mice; vs vehicle
human patients = conditions: in vivo; cited from earlier work

| SMILES | duration of responses in splenomegaly (MF patients) [months] | control of symptomatic or progressive splenomegaly, comparison [1] | RBC levels (JAK2V617F mice) | bone marrow fibrosis (JAK2V617F mice) | spleen weights (JAK2V617F mice) | bone marrow fibrosis in human patients (human patients) | splenomegaly (human patients) |
| --- | --- | --- | --- | --- | --- | --- | --- |
| Cc1[nH]c2ccccc2c1CCNCc1ccc(/C=C/C(=O)NO)cc1 [Panobinostat, panobinostat] | > 6 |  |  |  |  |  |  |
| N#CC[C@H](C1CCCC1)n1cc(-c2ncnc3[nH]ccc23)cn1 [rux, ruxolitinib] |  | superior to HC | significantly lowered RBC levels | similar, high levels of bone marrow fibrosis | reduced spleen weights | does not appear to improve bone marrow fibrosis; also recorded: does not treat | reduce splenomegaly |
